Test results: PubChem BioAssay (NCATS)
Inconclusive results, whose numbers are uncertain, are shown with a selection of clear calls. A potency beside an inconclusive call is a rough fit, not a confirmed value. Activity calls are given as the source filed them. Calls come from the whole dose curve; as a rule, active = well fitted activation curve with a large enough effect; inconclusive = small, poorly fitted or top-dose-only effect, or another doubt; inactive = no such curve, though single readings can be large or run the other way.

Target: Rap guanine nucleotide exchange factor 3 (Homo sapiens) (UniProt O95398)
Assay: Counterscreen qHTS for agonist of cAMP-regulated guanine nucleotide exchange factor 3 (EPAC1) (AID 1645889); note: nearly all actives have a fitted effect of over 40% in size; for activation: % of control where 0% means no effect
Details: EPAC1 Rap1B-BODIPY-GDP exchange, fluorescence; activation: at 154 µM (top of the series) unless noted
In short: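 Rap1B-BODIPY-GDP 250 nM + GDP 50 uM; cpds 7-pt, final 9.74 nM–152 uM (activator mode) or from 7.32 nM upwards (inhibitor mode); RT; FI 480/540 nm at 5 and 30 min, then ± cAMP, reread.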
Potency is the fitted concentration of half-maximal effect.

SMILES	activation	Potency
O=C(O)c1ccc(NC(=O)C(c2ccccc2)c2ccccc2)cc1	inconclusive: 28.9% [activator]	–
O=C1CNC(=O)c2c(nc3n2CCC3)N1	inconclusive: 37.4% [activator]	–
CCC1CCCCN1CCCNC(=O)CCC(=O)N1CC(C)Oc2ccccc21 (configuration not stated)	–	inconclusive: 8.91 µM [activator, partial curve, poor fit]
Cc1cccc(C(=O)Nc2cccc(C(=O)OCc3cc(=O)n4c5c(sc4n3)CCCC5)c2)c1	–	inconclusive: 70.8 µM [activator, partial curve, poor fit]
COc1ccc(OC)c(NC(=O)Cc2c(C(=O)O)n(C)c3ccc(C)cc23)c1	–	inactive
Cc1nc(=O)c(-c2ccccc2)c(C)n1CCCCCC(=O)O	inactive: 4.21% [at 30.8 µM]	–
COC(=O)c1sccc1NS(=O)(=O)c1ccccc1[N+](=O)[O-]	inactive: 33.8% [at 30.8 µM]	–
Clc1ccc(-c2cc3ccccc3nc2N2CCOCC2)cc1	–	inactive
COc1ccc(/C=N/NC(=O)c2cccnc2)cc1CN1CCCc2ccccc21	–	inconclusive: 15.8 µM [activator, full curve, poor fit]
COc1ccc2oc(C)c(C(=O)c3ccc(C)cc3)c2c1	inconclusive: 46.2% [activator] [at 30.8 µM]	–
Cc1[nH]c(C)c2c(=O)n(Cc3ccc(Cl)cc3)ncc12	–	inactive
O=C(COC(=O)CNC(=O)c1ccc(Cl)cc1Cl)NCc1ccco1	–	inconclusive: 0.01 µM [activator, full curve, poor fit]

Reformatted bar-delimited: entries from further up
SMILES | activation | Potency
O=C(O)c1ccc(NC(=O)C(c2ccccc2)c2ccccc2)cc1 | inconclusive: 28.9% [activator] | –
COc1ccc2oc(C)c(C(=O)c3ccc(C)cc3)c2c1 | inconclusive: 46.2% [activator] [at 30.8 µM] | –
O=C(COC(=O)CNC(=O)c1ccc(Cl)cc1Cl)NCc1ccco1 | – | inconclusive: 0.01 µM [activator, full curve, poor fit]
